Reference: the supplement of paper PMC10849652
The other results are listed elsewhere or left out.

Amino acid sequences for entries named in this document (tags omitted). A change or cut given only in a name is not applied to a line headed by its entry.
UniProt Q9H999: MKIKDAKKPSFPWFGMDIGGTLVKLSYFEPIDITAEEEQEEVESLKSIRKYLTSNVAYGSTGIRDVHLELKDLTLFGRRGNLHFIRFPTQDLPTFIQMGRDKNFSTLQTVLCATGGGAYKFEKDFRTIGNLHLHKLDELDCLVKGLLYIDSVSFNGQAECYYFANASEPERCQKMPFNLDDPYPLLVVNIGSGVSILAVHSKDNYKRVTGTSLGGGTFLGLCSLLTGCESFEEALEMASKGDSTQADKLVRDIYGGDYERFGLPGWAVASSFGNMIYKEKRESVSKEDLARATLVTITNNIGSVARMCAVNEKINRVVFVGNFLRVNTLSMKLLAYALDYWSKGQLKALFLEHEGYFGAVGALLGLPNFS
UniProt Q9UBM1: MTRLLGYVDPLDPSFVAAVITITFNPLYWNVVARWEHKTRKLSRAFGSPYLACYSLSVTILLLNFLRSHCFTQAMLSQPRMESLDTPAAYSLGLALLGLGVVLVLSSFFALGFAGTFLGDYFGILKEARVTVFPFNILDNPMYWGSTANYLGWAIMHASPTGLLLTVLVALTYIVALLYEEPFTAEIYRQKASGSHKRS
UniProt O60829: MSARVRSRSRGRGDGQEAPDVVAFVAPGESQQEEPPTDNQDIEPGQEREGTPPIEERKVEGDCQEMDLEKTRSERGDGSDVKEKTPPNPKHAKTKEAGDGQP
UniProt Q16549: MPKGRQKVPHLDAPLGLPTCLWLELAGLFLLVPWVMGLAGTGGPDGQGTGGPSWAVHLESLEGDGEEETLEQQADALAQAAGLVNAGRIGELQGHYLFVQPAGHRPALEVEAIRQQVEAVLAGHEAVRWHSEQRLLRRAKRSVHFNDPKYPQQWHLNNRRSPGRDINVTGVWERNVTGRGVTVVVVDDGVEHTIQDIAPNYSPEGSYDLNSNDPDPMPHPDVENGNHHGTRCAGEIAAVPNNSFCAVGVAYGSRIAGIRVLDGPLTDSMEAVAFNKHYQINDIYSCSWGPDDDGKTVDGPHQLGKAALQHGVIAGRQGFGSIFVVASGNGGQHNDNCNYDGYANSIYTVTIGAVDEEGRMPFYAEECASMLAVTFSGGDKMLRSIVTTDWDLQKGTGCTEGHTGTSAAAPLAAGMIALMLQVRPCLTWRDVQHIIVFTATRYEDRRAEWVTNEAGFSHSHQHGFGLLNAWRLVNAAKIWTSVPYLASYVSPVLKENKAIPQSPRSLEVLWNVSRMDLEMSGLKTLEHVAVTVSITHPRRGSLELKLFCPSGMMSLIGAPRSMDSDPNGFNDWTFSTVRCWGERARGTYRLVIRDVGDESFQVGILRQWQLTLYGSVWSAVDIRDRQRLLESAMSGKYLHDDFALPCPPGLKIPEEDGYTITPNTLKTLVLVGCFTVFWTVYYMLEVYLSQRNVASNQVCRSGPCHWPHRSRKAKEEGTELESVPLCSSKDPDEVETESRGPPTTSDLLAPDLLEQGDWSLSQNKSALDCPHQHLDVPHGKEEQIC
UniProt Q9H6A9: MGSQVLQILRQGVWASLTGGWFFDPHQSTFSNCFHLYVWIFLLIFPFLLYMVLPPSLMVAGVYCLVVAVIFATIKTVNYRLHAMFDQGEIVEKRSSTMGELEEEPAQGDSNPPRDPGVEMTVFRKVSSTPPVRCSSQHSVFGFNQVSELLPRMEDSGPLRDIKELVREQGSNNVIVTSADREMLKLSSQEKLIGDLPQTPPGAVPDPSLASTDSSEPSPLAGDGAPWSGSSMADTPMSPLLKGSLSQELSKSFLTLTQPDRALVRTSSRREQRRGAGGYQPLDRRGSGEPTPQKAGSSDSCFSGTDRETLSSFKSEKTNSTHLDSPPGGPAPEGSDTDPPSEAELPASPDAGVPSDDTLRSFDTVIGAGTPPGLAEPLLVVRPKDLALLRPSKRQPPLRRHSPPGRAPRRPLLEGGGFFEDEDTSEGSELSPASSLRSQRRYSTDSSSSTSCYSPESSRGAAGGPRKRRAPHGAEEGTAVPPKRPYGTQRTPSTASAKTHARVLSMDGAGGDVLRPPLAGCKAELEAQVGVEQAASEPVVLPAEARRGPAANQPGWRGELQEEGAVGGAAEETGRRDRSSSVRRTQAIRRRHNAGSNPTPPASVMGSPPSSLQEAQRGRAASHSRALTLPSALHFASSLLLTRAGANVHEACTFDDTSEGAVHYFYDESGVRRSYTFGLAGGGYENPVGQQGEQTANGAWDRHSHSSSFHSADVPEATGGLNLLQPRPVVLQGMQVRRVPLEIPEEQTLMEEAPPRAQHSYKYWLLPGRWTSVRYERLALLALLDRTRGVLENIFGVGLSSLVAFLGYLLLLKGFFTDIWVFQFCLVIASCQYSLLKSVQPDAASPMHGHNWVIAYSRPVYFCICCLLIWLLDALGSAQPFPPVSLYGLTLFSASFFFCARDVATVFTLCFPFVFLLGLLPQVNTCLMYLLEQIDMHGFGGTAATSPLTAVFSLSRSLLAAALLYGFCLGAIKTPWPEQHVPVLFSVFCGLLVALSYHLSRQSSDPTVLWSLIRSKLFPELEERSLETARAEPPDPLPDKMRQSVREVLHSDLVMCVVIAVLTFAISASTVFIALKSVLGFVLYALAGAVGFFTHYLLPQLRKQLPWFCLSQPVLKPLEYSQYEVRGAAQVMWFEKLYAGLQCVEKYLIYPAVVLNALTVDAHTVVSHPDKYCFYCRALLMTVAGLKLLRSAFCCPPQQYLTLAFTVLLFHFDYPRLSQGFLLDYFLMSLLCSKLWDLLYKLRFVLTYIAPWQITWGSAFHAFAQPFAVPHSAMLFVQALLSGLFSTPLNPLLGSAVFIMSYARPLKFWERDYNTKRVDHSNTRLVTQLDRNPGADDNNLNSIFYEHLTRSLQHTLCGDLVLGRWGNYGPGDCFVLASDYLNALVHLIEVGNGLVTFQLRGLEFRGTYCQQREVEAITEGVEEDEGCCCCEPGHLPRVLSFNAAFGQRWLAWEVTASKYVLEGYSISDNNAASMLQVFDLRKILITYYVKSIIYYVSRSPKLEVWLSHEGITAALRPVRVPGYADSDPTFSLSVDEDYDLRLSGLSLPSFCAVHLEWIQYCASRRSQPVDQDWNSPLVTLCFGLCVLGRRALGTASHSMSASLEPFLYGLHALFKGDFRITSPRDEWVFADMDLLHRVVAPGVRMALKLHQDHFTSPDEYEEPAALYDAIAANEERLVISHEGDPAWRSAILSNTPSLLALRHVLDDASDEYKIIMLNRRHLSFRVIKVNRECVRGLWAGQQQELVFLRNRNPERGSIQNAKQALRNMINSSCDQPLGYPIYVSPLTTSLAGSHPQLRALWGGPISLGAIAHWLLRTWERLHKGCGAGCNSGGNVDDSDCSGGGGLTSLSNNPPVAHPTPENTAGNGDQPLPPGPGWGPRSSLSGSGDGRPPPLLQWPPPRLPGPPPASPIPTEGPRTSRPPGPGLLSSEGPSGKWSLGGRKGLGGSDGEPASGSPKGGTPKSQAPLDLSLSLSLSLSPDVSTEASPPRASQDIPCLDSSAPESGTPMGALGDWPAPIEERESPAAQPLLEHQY
UniProt Q8TE04: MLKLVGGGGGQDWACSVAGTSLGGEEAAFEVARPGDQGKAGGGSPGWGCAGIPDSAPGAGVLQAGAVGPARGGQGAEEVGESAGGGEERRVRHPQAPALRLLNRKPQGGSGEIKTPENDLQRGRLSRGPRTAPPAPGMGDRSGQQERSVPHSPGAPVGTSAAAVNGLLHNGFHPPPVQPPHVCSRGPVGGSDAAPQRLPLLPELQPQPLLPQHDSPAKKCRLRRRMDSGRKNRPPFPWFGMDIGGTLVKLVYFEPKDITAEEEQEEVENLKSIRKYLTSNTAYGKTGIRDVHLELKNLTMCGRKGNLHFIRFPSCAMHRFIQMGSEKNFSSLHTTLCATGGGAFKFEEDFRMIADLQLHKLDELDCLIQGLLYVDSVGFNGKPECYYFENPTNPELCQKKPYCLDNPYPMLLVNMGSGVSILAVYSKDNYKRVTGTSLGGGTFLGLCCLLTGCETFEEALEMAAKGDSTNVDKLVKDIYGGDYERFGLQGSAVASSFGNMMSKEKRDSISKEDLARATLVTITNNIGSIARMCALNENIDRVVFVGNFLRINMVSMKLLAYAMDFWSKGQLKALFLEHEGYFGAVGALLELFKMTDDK
UniProt O75781: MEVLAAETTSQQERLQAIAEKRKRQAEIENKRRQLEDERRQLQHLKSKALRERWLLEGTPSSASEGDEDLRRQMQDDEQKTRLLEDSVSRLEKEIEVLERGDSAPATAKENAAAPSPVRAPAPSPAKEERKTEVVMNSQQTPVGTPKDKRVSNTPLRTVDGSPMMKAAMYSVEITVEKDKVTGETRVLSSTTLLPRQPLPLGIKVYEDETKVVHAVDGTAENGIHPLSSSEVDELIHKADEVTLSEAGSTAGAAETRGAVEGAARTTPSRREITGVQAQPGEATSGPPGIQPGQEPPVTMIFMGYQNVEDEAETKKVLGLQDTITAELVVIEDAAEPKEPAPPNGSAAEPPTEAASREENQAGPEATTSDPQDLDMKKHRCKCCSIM
UniProt Q16342: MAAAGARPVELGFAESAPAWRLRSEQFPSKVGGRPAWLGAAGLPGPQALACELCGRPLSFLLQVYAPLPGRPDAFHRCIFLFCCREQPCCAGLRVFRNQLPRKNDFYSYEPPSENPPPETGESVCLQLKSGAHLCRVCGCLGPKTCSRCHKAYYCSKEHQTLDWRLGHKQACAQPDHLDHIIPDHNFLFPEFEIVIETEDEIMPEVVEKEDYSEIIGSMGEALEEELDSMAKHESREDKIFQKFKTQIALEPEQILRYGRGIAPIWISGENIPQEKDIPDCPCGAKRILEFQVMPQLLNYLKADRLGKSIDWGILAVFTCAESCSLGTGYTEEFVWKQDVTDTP
UniProt P29122: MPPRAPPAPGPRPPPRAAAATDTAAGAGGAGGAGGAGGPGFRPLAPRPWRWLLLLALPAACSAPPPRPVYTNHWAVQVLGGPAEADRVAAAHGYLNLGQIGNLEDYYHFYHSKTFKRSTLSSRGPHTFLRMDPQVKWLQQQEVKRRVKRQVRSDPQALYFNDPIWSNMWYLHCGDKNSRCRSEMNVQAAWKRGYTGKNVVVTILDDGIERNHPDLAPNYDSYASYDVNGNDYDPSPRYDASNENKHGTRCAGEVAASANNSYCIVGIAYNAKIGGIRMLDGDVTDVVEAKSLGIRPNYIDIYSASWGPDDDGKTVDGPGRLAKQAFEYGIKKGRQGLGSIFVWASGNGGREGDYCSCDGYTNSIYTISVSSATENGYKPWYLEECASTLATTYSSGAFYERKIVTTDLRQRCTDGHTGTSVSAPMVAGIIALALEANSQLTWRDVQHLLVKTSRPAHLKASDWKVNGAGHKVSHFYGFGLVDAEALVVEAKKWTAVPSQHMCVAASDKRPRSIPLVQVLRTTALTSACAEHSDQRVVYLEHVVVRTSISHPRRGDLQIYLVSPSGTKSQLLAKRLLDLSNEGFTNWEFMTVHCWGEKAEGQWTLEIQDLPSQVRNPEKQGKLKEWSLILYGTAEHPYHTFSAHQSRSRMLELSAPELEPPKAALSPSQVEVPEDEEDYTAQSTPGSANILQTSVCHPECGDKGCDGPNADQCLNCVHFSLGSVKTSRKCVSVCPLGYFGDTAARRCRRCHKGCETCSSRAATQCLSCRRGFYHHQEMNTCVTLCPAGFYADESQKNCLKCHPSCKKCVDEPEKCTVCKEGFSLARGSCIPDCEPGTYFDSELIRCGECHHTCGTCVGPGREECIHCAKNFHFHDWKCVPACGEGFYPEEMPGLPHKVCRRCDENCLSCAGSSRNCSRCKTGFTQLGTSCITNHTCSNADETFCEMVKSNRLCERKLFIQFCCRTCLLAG
UniProt Q9P0J1: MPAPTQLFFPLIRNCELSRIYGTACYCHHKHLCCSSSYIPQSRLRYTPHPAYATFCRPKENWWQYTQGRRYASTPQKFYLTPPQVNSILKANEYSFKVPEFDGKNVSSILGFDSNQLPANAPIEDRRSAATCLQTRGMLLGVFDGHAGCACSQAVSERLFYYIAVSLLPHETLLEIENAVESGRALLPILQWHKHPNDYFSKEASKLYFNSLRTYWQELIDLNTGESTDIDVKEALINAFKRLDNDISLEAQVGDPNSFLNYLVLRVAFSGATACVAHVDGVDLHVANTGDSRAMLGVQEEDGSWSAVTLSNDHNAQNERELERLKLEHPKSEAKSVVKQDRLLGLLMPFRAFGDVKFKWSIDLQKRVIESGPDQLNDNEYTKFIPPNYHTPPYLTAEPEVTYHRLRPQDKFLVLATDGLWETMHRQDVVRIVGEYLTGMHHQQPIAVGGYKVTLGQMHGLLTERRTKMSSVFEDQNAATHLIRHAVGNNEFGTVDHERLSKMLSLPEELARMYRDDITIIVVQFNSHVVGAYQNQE

What follows are targets tested with CCN(CC)Cc1ccc2cc(COC(=O)Nc3ccc(C(=O)NO)cc3)ccc2c1 [givinostat] (assay: log2 fold change, soluble protein after heating vs DMSO (PISA); higher = thermal stabilisation; K562 cells, 10 uM, 30 min; active = over 0.2 and 3.5 SD of the protein, either way, in both replicates (recomputed)).
How it was run: (§1)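 Values are thermal stability changes relative to control samples and are taken from duplicates. They are stated as log2 fold changes. Before quantification by TMTpro 16plex LC-MS/MS with equalised channel sums, K562 cells at 2×10^6 cells/mL were treated with 10 μM compound for 30 min, heated in aliquots for 3 min across 48°C-58°C, pooled, extracted in PBS with 0.5% NP-40 at 4°C, and centrifuged at 21,000xg for 90 min to give the soluble supernatant.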

log2 fold change, inactive:
PCBP2 (UniProt F8VZX2) 0.009
PANK3 (UniProt Q9H999) -0.025
PACSIN3 (UniProt Q9UKS6) -0.055
PEMT isoform 2 (UniProt Q9UBM1) -0.141
PAGE4 (UniProt O60829) -0.047
PCSK7 (UniProt Q16549) -0.052
PCNX3 (UniProt Q9H6A9) 0.066
PDE4DIP (UniProt E9PS60) 0.016
PAXBP1 (UniProt Q9Y5B6) 0.117
PANK1 (UniProt Q8TE04) 0.039
PALM (UniProt O75781) -0.051

What follows are targets tested with CCN(CCCOc1ccc2c(Nc3cc(CC(=O)Nc4cccc(F)c4)[nH]n3)ncnc2c1)CCOP(=O)(O)O [barasertib] in the same assay as above.
How it was run: as §1

log2 fold change, inactive:
PDCD2 (UniProt Q16342) 0.022
PCNX1 (UniProt Q96RV3) 0.026
PCBP2 (UniProt F8VZX2) -0.173
PANK3 (UniProt Q9H999) 0.028
PCSK6 isoform 7 (UniProt P29122) 0.066
PDP1 isoform 2 (UniProt Q9P0J1) 0.248
PAGE4 (UniProt O60829) 0.177
PAXBP1 (UniProt Q9Y5B6) -0.058
PANK1 (UniProt Q8TE04) 0.021
PABPN1 (UniProt Q86U42) -0.101
PAN2 (UniProt Q504Q3) 0.088
